From article PMC12089306
These are yes or no findings as the source states them, for the method shown. Binding seen in cells or lysates may run through a third protein. Some binding calls cover weakened binding; strength is not graded here.

Sequences of proteins named here, by UniProt entry; tags and fusion partners are left off. A change or cut given only in a name is not applied to a line headed by its entry. A line that says so, or that is headed by a name, gives the form on record, which may keep a tag or linker.
UniProt Q15561: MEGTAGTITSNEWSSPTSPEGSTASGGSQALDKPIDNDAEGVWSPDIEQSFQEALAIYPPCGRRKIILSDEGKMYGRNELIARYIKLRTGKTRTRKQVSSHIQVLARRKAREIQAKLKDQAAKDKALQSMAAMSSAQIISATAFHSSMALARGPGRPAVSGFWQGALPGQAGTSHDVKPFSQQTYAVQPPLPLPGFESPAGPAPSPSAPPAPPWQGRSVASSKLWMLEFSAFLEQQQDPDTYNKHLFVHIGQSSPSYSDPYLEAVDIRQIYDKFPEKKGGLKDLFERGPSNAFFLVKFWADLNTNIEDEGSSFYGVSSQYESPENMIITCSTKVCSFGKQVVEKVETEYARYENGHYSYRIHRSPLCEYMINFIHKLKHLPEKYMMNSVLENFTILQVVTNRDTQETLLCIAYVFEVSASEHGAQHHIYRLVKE
UniProt P28347: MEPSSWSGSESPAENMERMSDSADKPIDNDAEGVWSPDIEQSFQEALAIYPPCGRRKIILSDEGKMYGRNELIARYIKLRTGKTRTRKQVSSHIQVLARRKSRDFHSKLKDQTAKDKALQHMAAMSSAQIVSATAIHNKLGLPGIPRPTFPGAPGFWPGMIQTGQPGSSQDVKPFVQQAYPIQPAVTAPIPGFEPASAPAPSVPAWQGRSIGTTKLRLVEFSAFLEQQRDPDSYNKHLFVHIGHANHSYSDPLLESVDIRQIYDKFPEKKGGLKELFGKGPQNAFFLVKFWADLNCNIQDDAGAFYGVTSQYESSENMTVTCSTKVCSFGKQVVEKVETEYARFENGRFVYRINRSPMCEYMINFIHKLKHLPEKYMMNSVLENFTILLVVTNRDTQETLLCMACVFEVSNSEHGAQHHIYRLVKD
UniProt Q15562: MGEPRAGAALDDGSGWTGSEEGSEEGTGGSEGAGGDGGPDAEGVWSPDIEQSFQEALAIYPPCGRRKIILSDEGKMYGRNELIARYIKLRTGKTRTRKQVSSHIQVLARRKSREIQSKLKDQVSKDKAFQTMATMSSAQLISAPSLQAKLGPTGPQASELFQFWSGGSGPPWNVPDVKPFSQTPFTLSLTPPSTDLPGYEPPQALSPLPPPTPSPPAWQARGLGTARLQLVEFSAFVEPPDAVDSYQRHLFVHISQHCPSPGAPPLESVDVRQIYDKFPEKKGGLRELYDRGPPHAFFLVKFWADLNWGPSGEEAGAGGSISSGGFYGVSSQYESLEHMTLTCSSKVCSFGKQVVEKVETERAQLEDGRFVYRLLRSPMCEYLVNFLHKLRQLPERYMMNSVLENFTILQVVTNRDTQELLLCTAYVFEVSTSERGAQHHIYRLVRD
UniProt Q99594: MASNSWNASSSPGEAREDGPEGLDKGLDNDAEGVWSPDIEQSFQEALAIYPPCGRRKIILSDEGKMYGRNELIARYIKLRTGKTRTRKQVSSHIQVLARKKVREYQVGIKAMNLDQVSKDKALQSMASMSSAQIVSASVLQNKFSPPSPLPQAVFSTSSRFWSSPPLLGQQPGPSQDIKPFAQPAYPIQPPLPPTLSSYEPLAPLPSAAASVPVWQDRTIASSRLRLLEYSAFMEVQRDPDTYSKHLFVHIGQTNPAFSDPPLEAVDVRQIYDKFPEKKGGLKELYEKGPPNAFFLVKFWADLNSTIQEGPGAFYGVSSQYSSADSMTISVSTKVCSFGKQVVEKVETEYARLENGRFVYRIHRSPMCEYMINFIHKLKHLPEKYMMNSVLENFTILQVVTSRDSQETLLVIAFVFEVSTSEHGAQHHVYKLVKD
UniProt P08047: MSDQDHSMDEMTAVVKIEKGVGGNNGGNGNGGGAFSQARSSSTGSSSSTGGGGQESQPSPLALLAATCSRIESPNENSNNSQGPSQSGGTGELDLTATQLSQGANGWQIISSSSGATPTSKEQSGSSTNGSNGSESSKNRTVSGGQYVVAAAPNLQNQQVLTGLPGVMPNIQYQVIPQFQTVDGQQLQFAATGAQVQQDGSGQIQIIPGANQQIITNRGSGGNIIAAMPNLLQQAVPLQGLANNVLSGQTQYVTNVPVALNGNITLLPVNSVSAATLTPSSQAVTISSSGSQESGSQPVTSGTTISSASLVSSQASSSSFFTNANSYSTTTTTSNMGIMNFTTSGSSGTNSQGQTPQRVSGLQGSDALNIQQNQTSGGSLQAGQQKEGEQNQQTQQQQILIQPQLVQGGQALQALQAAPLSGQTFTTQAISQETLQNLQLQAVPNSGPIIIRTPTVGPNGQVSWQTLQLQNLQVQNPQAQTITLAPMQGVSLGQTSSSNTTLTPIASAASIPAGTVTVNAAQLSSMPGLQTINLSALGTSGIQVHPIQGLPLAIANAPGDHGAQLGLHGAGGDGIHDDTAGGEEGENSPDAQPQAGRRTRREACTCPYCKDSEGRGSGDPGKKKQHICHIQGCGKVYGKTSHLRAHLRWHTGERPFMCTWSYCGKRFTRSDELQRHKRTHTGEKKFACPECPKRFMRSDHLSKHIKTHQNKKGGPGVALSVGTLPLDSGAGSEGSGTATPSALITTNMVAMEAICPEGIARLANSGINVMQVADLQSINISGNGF
SP1 with individual mutation of T668 (P08047, form named): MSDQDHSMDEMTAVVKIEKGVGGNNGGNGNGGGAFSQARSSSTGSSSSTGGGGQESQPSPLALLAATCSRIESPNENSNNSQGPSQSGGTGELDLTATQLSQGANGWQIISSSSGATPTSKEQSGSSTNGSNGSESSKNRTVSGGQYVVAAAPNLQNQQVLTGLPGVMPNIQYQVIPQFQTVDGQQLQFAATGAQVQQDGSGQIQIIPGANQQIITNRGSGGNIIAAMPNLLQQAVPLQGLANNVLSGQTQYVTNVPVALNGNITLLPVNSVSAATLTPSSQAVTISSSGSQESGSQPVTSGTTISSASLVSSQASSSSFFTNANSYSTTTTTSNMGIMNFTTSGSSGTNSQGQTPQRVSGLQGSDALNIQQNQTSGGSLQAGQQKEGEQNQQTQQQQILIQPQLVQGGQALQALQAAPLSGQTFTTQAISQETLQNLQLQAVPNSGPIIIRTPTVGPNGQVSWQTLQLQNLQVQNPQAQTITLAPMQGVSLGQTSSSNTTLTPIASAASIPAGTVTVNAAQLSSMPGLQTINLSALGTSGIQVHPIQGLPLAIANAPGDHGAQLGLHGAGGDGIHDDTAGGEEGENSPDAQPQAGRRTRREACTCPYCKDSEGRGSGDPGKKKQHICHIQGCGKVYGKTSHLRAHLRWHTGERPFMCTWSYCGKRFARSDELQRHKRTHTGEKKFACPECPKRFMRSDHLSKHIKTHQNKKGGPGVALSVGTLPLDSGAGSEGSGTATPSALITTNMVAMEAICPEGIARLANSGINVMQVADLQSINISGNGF
SP1 with individual mutation of S670 (P08047, form named): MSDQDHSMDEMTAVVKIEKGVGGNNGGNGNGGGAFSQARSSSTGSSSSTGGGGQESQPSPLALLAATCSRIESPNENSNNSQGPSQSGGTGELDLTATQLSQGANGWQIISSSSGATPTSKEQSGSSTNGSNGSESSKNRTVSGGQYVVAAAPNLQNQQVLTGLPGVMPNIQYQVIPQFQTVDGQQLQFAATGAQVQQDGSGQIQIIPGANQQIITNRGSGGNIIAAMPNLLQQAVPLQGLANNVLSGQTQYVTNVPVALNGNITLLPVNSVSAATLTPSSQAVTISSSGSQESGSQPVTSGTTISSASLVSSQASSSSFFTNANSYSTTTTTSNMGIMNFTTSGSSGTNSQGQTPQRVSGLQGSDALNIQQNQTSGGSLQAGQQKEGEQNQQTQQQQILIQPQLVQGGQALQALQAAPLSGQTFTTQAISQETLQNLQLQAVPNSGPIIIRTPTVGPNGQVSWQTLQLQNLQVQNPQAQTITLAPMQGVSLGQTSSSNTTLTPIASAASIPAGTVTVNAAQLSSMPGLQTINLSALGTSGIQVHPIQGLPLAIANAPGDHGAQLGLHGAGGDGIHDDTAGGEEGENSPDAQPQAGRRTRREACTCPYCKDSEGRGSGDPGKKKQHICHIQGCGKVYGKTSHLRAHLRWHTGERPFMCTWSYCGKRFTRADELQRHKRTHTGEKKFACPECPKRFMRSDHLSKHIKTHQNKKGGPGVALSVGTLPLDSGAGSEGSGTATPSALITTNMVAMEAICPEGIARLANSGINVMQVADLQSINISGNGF
SP1 with individual mutation of T681 (P08047, form named): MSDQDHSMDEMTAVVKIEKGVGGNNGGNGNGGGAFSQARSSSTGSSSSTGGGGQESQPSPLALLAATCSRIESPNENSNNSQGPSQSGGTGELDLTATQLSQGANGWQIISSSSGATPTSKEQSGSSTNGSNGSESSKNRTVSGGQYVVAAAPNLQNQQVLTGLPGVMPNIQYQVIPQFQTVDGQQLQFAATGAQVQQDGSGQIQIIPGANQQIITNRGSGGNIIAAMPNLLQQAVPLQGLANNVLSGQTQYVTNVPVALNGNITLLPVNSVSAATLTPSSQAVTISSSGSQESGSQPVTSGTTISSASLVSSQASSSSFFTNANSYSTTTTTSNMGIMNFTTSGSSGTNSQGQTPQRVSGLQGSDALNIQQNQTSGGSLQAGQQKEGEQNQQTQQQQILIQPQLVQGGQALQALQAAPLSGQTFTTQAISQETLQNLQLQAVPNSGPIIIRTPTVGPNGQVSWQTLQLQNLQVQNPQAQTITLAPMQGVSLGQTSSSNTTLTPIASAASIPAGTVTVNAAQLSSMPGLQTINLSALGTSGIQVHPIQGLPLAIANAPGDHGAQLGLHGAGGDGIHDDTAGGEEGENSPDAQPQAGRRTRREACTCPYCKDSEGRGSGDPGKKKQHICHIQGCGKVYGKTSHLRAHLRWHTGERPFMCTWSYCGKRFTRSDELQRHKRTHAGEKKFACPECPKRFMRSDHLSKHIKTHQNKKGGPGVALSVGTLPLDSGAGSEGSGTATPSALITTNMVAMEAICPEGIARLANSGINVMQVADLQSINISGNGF

Key:
[1] = target: TEAD4 (in HCT116 cells, Fig. 2I and Fig. 3) (UniProt Q15561); assay: co-IP; HCT116 cells transfected with the indicated plasmids (WT, truncated or phosphorylation-site mutant SP1; TEAD4; PKCζ); serum starvation and 10% serum, PKCζ overexpression, PKCζ siRNA, 1 μM ZIP, LATS1/2 knockdown as treatments
[2] = target: endogenous TEAD4 (human (endogenous in HCT116)) (UniProt Q15561); assay: proximity ligation; Duolink In Situ Detection Kit on fixed, permeabilised HCT116 cells; antibodies against SP1 (rabbit) and YAP, TAZ or TEAD4 (mouse)
[3] = target: endogenous TEAD4 (human (endogenous in HCT116)) (UniProt Q15561); assay: co-IP; endogenous proteins in HCT116 lysate; primary antibodies at 4 °C overnight, protein A/G agarose beads 2 h; with or without SP1 knockdown for YAP/TAZ with TEADs
[4] = target: FLAG-TEAD4 (in HCT116 cells) (UniProt Q15561); assay: co-IP; exogenous FLAG-TEAD4 (wild type or mutants) and endogenous SP1 in HCT116 cells; in the presence or absence of DNase I
FLAG-TEAD4 = FLAG-TEAD4 (UniProt Q15561); assay: co-IP; exogenous FLAG-YAP/TAZ/TEAD4 and HA-SP1 co-expressed in HEK293T cells
TEAD1 = TEAD1 (UniProt P28347); assay: co-IP; Supplementary Fig. S2A; the four TEAD family members with SP1; cells and constructs not shown
TEAD2 = TEAD2 (UniProt Q15562); assay: as above
TEAD3 = TEAD3 (UniProt Q99594); assay: as above
[5] = target: TEAD4 (as used in Supplementary Fig. S2A) (UniProt Q15561); assay: as above

## SP1 with individual mutation of T668 (from UniProt P08047 1-785)
[1]
  binding: binds

## SP1 with individual mutation of S670 (from UniProt P08047 1-785)
[1]
  binding: binds

## endogenous SP1 (from UniProt P08047 1-785)
[2]
  binding: binds
[3]
  binding: binds weakly
[4]
  binding: binds

## HA-SP1 (from UniProt P08047 1-785)
FLAG-TEAD4
  binding: binds

## WT SP1 (exogenous, in HCT116 cells) (from UniProt P08047 1-785)
[1]
  binding: binds

## SP1 (as used in Supplementary Fig. S2A) (from UniProt P08047 1-785)
TEAD1
  binding: binds
TEAD2
  binding: binds
TEAD3
  binding: binds
[5]
  binding: binds

## SP1 with individual mutation of T681 (from UniProt P08047 1-785)
[1]
  binding: binds

B1: PKCζ (protein kinase C ζ) (enzyme, UniProt Q05513 1-592)
chain: MPSRTGPKMEGSGGRVRLKAHYGGDIFITSVDAATTFEELCEEVRDMCRLHQQHPLTLKWVDSEGDPCTVSSQMELEEAFRLARQCRDEGLIIHVFPSTPEQPGLPCPGEDKSIYRRGARRWRKLYRANGHLFQAKRFNRRAYCGQCSERIWGLARQGYRCINCKLLVHKRCHGLVPLTCRKHMDSVMPSQEPPVDDKNEDADLPSEETDGIAYISSSRKHDSIKDDSEDLKPVIDGMDGIKISQGLGLQDFDLIRVIGRGSYAKVLLVRLKKNDQIYAMKVVKKELVHDDEDIDWVQTEKHVFEQASSNPFLVGLHSCFQTTSRLFLVIEYVNGGDLMFHMQRQRKLPEEHARFYAAEICIALNFLHERGIIYRDLKLDNVLLDADGHIKLTDYGMCKEGLGPGDTTSTFCGTPNYIAPEILRGEEYGFSVDWWALGVLMFEMMAGRSPFDIITDNPDMNTEDYLFQVILEKPIRIPRFLSVKASHVLKGFLNKDPKERLGCRPQTGFSDIKSHAFFRSIDWDLLEKKQALPPFQPQITDDYGLDNFDTQFTSEPVQLTPDDEDAIKRIDQSEFEGFEYINPLLLSTEESV
[1]
  binding: binds
